Data published in publication PMC7914255.
Results are given in words; binding and its absence hold for the method and conditions named. Binding seen in cells or lysates may run through a third protein. These calls come from enrichment with a bait or labelling near it, and not all partners need be listed. Where a sequence is shown, tags or fusion partners need not be part of it.

Chains of the proteins cited; added tags and fusions are not shown.
UniProt Q9BXL6: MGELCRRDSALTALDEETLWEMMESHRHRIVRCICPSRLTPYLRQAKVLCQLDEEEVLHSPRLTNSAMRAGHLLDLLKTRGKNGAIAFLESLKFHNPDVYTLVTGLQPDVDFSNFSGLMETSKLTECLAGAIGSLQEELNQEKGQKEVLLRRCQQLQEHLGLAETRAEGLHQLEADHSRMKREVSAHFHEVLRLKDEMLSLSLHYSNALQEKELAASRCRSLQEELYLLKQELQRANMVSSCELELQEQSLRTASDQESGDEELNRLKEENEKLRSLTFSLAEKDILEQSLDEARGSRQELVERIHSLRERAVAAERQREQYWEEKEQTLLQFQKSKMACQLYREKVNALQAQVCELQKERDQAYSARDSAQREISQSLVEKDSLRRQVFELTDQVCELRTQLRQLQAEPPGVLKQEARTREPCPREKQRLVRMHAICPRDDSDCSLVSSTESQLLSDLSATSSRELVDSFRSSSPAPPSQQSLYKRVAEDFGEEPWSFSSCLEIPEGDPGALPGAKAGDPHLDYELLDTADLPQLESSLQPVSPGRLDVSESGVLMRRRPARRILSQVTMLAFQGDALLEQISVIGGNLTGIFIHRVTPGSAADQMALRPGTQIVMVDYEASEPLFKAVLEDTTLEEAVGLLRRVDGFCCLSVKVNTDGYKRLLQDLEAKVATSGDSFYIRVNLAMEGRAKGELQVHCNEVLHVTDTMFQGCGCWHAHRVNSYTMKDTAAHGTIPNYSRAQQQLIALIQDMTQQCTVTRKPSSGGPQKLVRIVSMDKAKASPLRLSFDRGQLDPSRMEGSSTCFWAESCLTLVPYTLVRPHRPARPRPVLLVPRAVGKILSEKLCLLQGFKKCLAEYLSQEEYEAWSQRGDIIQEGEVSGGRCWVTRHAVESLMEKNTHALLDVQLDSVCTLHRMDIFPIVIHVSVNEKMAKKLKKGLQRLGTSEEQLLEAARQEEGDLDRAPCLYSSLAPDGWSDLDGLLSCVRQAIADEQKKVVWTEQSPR

Target: T1, Flag-tagged TRIM41 (full length) (mouse) (UniProt Q5NCC3)
T1 sequence: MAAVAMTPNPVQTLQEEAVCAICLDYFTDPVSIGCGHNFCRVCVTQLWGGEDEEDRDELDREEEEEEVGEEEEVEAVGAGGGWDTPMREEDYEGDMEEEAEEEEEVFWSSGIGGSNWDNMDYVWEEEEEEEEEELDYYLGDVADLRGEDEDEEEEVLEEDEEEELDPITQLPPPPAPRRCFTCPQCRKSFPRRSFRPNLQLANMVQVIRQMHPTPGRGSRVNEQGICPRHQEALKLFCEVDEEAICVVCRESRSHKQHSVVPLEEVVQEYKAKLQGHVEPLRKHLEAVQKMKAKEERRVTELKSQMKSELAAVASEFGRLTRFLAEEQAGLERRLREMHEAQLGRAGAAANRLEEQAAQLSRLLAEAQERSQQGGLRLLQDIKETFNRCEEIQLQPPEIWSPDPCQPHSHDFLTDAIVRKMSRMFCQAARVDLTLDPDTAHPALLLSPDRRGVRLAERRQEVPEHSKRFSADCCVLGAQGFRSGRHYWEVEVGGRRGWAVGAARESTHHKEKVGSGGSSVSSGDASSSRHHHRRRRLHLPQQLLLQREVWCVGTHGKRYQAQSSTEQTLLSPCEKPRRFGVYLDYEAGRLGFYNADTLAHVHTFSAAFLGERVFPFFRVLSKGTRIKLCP
Experiment: affinity purification with mass spectrometry; Flag-tagged TRIM41 overexpressed in HEK293T cells, immunoprecipitation, then nano-UPLC electrospray tandem MS

Substance: CARD14 (from UniProt Q9BXL6 1-1004)
- binding: binds
